# PubChem BioAssay AID720505, Drosophila RNAi Screening Center | 2013
# Purpose: 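Genes needed for store-operated calcium entry in fly cells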 (primary screen)
# Cells: Drosophila S2R+ cells
# Reagents: long dsRNA against Drosophila genes
# Treatment: thapsigargin (2 µM) in calcium-free buffer to empty internal stores, then 2 mM calcium added back
# Read-out: 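Stores emptied by 2 µM thapsigargin without calcium, then 2 mM calcium re-added; fluo-4 fluorescence followed by FLIPR in 384-well plates, per-well averaged endpoint, raw; two screen passes, some wells retested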
# Direction: calcium signal and retest calcium signal: higher = more calcium entry after store depletion
# Active means: 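Knock-downs counted as hits when calcium entry dropped relative to STIM1 positive and Rho1 negative controls present on each plate; roughly 1500 genes called, with reductions of differing size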
# Meaning of the calls: active = called as lowering calcium entry; inactive = not called
# The screen tested about 20,000 reagents; below is a random part of those that have a named target and a result. Of all reagents, about 2,100 (10%) are marked active. 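Raw plate signals without normalisation; calls rest on control-based scores that were not deposited; replicate 2 separates called from uncalled poorly.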 Reagents against one gene are numbered here. A plus sign joins genes that one reagent is predicted to hit. Reagent sequences are not shown. The record does not give: the amount of reagent, the time to read-out.
Gene,reagent no.,"calcium signal, replicate 1","calcium signal, replicate 2","retest calcium signal, replicate 1","retest calcium signal, replicate 2",Call
CG32191 (GeneID 317903),1,95.8,198,,,inactive
Boot (GeneID 35919),1,100,132,,,inactive
eRF3 (GeneID 34658),1,123,149,,,inactive
CG31445 (GeneID 326140),1,83.1,132,,,inactive
CCAP-R (GeneID 2768688),1,263,143,,,inactive
CCAP-R (GeneID 2768688),2,293,174,,,inactive
CG6013 (GeneID 42286),1,111,204,,,inactive
MagR (GeneID 32513),1,92.3,121,,,inactive
CG12470 (GeneID 30977),1,122,116,,,inactive
CG8924 (GeneID 32557),1,137,144,,,inactive
CG8924 (GeneID 32557),2,115,145,,,inactive
Obp19c (GeneID 33039),1,98.9,102,,,inactive
CG5645 (GeneID 39382),1,65.4,68.6,,,active
CG30036 (GeneID 246408),1,116,95.8,,,inactive
Ythdc1 (GeneID 38420),1,108,88,,,inactive
CG9143 (GeneID 37296),1,226,146,,,inactive
CG43658 (GeneID 32729),1,65.7,124,,,active
CG43658 (GeneID 32729),2,93.9,133,,,inactive
CG7582 (GeneID 43492),1,122,90.2,,,inactive
CG6724 (GeneID 34488),1,135,105,,,inactive
CG33722 + CG18749,1,92.5,125,,,inactive
nahoda (GeneID 37641),1,94.5,9682,,,inactive
nahoda (GeneID 37641),2,135,99.7,,,inactive
CG4927 (GeneID 36852),1,153,128,,,inactive
CG3473 (GeneID 34849),1,119,112,,,inactive
CG6788 + CR32496,1,128,210,,,inactive
tsh (GeneID 35430),1,99.1,116,,,inactive
sd (GeneID 32536),1,92.5,146,,,inactive
sd (GeneID 32536),2,86.5,141,,,inactive
sdk (GeneID 31017),1,114,197,,,inactive
GC (GeneID 38194),1,83.6,139,,,inactive
rdgC (GeneID 40224),1,73,124,,,inactive
rdgC (GeneID 40224),2,57.9,110,,,active
swaPsi (GeneID 3771807),1,219,87.9,,,inactive
lolal (GeneID 44703),1,145,102,,,inactive
Nmnat (GeneID 42987),1,113,111,,,inactive
Pisd (GeneID 42849),1,139,263,,,inactive
ntc (GeneID 38443),1,108,101,,,inactive
CG14929 (GeneID 3771749),1,171,183,,,inactive
VepD (GeneID 117331),1,95.6,233,,,inactive
CG12923 (GeneID 36026),1,78.3,92.5,,,inactive
CG44085 (GeneID 34732),1,56.4,88.3,,,active
CG44085 (GeneID 34732),2,108,113,,,inactive
CG44085 (GeneID 34732),3,115,186,,,inactive
Gdap2 (GeneID 59173),1,129,149,,,inactive
Gdap2 (GeneID 59173),2,128,178,,,inactive
Pgant6 (GeneID 38346),1,69.2,142,,,active
knrl (GeneID 40285),1,132,118,,,inactive
knrl (GeneID 40285),2,86.9,123,,,inactive
mew (GeneID 32275),1,,,,,inactive
mew (GeneID 32275),2,123,96.9,,,inactive
Ugalt (GeneID 31255),1,127,135,,,inactive
MTA1-like (GeneID 40693),1,158,167,,,inactive
MTA1-like (GeneID 40693),2,72.4,152,,,inactive
CR11386 + CR33222,1,116,121,,,inactive
CG31816 (GeneID 318960),1,61.8,119,,,active
PGAP1 (GeneID 31487),1,81.8,91.3,,,inactive
Cyp316a1 (GeneID 38840),1,139,108,,,inactive
CG33630 (GeneID 3772504),1,73.5,93.3,,,inactive
CG13365 (GeneID 31005),1,82.2,118,,,inactive
CG10433 (GeneID 37458),1,190,106,,,inactive
Chi (GeneID 37837),1,159,83.9,,,inactive
CG11085 (GeneID 32213),1,90.2,116,,,inactive
CG11085 (GeneID 32213),2,131,108,,,inactive
CG14966 (GeneID 38390),1,90.6,126,,,inactive
Shrm (GeneID 36592),1,115,152,,,inactive
Shrm (GeneID 36592),2,89.4,96.8,,,inactive
Shrm (GeneID 36592),3,199,134,,,inactive
Shrm (GeneID 36592),4,84.5,60.1,,,inactive
CR43142 (GeneID 12798584),1,80.9,132,,,inactive
Muc68Ca (GeneID 2768980),1,125,95.2,,,inactive
Muc68Ca (GeneID 2768980),2,89.7,64.3,,,inactive
Fitm (GeneID 38596),1,122,90.9,,,inactive
CG14646 (GeneID 40555),1,126,90.4,143,125,inactive
CG14646 (GeneID 40555),2,133,95.8,,,inactive
spdo (GeneID 318559),1,,,,,active
Ibf2 (GeneID 41102),1,121,135,,,inactive
CG15625 (GeneID 33694),1,153,73.4,,,inactive
CG43066 (GeneID 37129),1,169,233,106,96.5,inactive
mthl6 (GeneID 38839),1,114,99.3,,,inactive
CG3609 (GeneID 33421),1,165,171,,,inactive
CG34315 + Orc3,1,156,149,,,inactive
RpL7A (GeneID 31588),1,119,86.8,,,active

Hits, of those listed so far:
Gene,reagent no.,"calcium signal, replicate 1","calcium signal, replicate 2","retest calcium signal, replicate 1","retest calcium signal, replicate 2",Call
CG5645 (GeneID 39382),1,65.4,68.6,,,active
CG43658 (GeneID 32729),1,65.7,124,,,active
rdgC (GeneID 40224),2,57.9,110,,,active
CG44085 (GeneID 34732),1,56.4,88.3,,,active
Pgant6 (GeneID 38346),1,69.2,142,,,active
CG31816 (GeneID 318960),1,61.8,119,,,active
spdo (GeneID 318559),1,,,,,active
RpL7A (GeneID 31588),1,119,86.8,,,active
